In all, about 400,000 compounds went through this assay and about 13,000 (3.2%) were called active. Inconclusive results, whose numbers are uncertain, are shown with a selection of clear calls. Calls come from the whole dose curve; as a rule, active = well fitted cell-killing curve with a large enough effect; inconclusive = small, poorly fitted or top-dose-only effect, or effect the other way; inactive = flat fitted curve, though single readings scatter. Potencies beside an inconclusive call are fits to weak or partial responses and may not hold up.
assay: qHTS assay for MDR1-selective chemotherapeutics: Primary screen using the drug-selected MDR subline cells KB-V1; conditions: KB-V1 MDR cells viability, CellTiter-Glo, 72 h; activity change, negative = cytotoxicity: at 46.1 µM (top of the series); note: nearly all actives have a fitted effect of over 60% in size
Procedure, shortened: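 Following 72 h at 37 degrees C with compound, KB-V1 cell viability was read by CellTiter-Glo luminescence, medium being phenol-red-free DMEM plus 10% FBS; concentration-response parameters came from normalized, curve-fitted qHTS data.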
% is set by controls: 0 for no effect and ±100 for the full control effect; potency is the fitted concentration of half-maximal effect.

Compound | Potency | activity change, negative = cytotoxicity
c1ccc(-c2csc3ncnc(NCCN4CCOCC4)c23)cc1 | inconclusive: 11.6 µM [cytotoxic, partial curve] | 
C=CCn1c(N)cc(=O)nc1SCC(=O)NC(C)c1ccccc1 (stereo not drawn) | inactive | 
O=S(=O)(c1ccc(S(=O)(=O)N2CCN3CCCC3C2)cc1)N1CCCC1 (stereo not drawn) | inconclusive: 20.6 µM [cytotoxic, partial curve] | 
Cn1c(=O)[nH]c(=O)c2c1nc(SCCO)n2CCCc1ccccc1 | inconclusive: 29.1 µM [cytotoxic, single point] | 
O=C(NC12CC3CC(CC(C3)C1)C2)c1ccc(-c2ccc(Br)cc2)o1 | inconclusive: 18.4 µM [cytotoxic, partial curve, poor fit] | 
O=[N+]([O-])c1cc(/C=N/NC(=S)Nc2ccccc2Cl)ccc1Cl | inconclusive: 29.1 µM [cytotoxic, single point] | 
S=C(Nc1cccc2ccccc12)NC1CCCCC1 | inactive | 
O=C(NC1CC1)c1cccc(Nc2ccc(-c3ccc4c(c3)OCCO4)nn2)c1 | active: 16.4 µM | 
Cc1cccc2nnc(-c3ccccc3)n12 | inactive | 
Cc1ccc(CN(Cc2ccco2)C(=S)Nc2ccccc2C)cc1 | inconclusive: 18.4 µM [cytotoxic, single point] | 
COc1ccc2oc(C(=O)OCC(=O)N(CC(C)C)c3c(N)n(Cc4ccccc4)c(=O)[nH]c3=O)c(C)c2c1 | inconclusive: 13 µM [cytotoxic, partial curve] | 
CC(C)c1ccc(OCC(=O)Nc2ccccc2C(=O)N2CCOCC2)cc1 | inconclusive: 18.4 µM [cytotoxic, single point] | 
CCOc1cc(C(=O)Nc2cc(C(=O)OC)ccc2C)ccc1OCC(=O)N1CCOCC1 | inactive | 
OC(CN1CCN(c2ccccn2)CC1)Cn1c2ccc(Cl)cc2c2cc(Cl)ccc21 (stereo not drawn) | inconclusive: 18.4 µM [cytotoxic, single point] | 
CC(/C=C/c1ccc2c(c1)OCO2)=N\NC(=O)COc1ccccc1C | inconclusive: 20.6 µM [cytotoxic, single point] | 
O=C(CSc1nnc(-c2cccnc2)o1)c1cc2ccccc2oc1=O | inconclusive: 23.1 µM [cytotoxic, single point] | 
CCC(C)NS(=O)(=O)c1ccc(OCC(=O)NCc2cccnc2)cc1 (stereo not drawn) | inactive | 
COC(=O)CN1C(=S)N(c2ccc(Cl)cc2)C(=O)C1CC(=O)Nc1ccc(Cl)cc1 (stereo not drawn) | inactive | 
CCOc1ccc(S(=O)(=O)Nc2cccc(C(=O)NCC3(N4CCCCC4)CCCCC3)c2)cc1 | inconclusive: 13 µM [cytotoxic, partial curve] | 
COCCn1c(SCC(=O)Nc2cccc(F)c2)nc2c(c1=O)SCC2 | inconclusive: 25.9 µM [cytotoxic, partial curve, poor fit] | 
CN(c1ccccc1)S(=O)(=O)c1ccc(NC(=O)c2cccs2)cc1 | inconclusive: 10.3 µM [cytotoxic, partial curve, poor fit] | 
CCOC(=O)c1ccccc1NC(=O)CSc1ncc(CO)n1Cc1ccc(C)cc1 | inactive | 
COc1ccc(CCNC(=O)Cc2cc3c(cc2[N+](=O)[O-])OCO3)cc1OC | inconclusive: 9.2 µM [cytotoxic, partial curve] | 
CCCc1nnc(SCC(=O)Nc2ccc(OCC)cc2)n1N | inconclusive: 23.1 µM [rising, single point] | 
Cc1ccc(S(=O)(=O)N2CCC(=O)N(CCOCc3ccccc3C)CC2)cc1 | inactive | 

6 consecutive entries already listed:
Compound | Potency | activity change, negative = cytotoxicity
COCCn1c(SCC(=O)Nc2cccc(F)c2)nc2c(c1=O)SCC2 | inconclusive: 25.9 µM [cytotoxic, partial curve, poor fit] | 
CN(c1ccccc1)S(=O)(=O)c1ccc(NC(=O)c2cccs2)cc1 | inconclusive: 10.3 µM [cytotoxic, partial curve, poor fit] | 
CCOC(=O)c1ccccc1NC(=O)CSc1ncc(CO)n1Cc1ccc(C)cc1 | inactive | 
COc1ccc(CCNC(=O)Cc2cc3c(cc2[N+](=O)[O-])OCO3)cc1OC | inconclusive: 9.2 µM [cytotoxic, partial curve] | 
CCCc1nnc(SCC(=O)Nc2ccc(OCC)cc2)n1N | inconclusive: 23.1 µM [rising, single point] | 
Cc1ccc(S(=O)(=O)N2CCC(=O)N(CCOCc3ccccc3C)CC2)cc1 | inactive | 

The list goes on:

Compound | Potency | activity change, negative = cytotoxicity
Cc1ccc(/C=C(\C#N)C(=O)Nc2c(C)cccc2C)s1 | inactive | 
CSc1cccc(NC(=S)N2CCCN(Cc3ccc(F)cc3)C2)c1 | inconclusive: 0.184 µM [cytotoxic, full curve] | 
CC(=O)N1CCN(c2ccc(NCc3ccc(F)cc3)cc2)CC1 | inactive | 
CC(C)(C)c1ccc(Cn2c(Cc3ccccc3)nc3ccccc32)cc1 | inconclusive: 20.6 µM [cytotoxic, single point] | 
C/C(=N\NC(N)=S)c1cc(-c2ccccc2)c(-c2ccccc2)s1 |  | inconclusive: -29.1%
O=C(Oc1ccc2c(c1)CCC2)N1CCOCC1 | inconclusive: 25.9 µM [cytotoxic, single point] | 
C=CCc1cccc(C2Nc3ccccc3C(=O)N2O)c1O (stereo not drawn) | inconclusive: 29.1 µM [cytotoxic, partial curve, poor fit] | 
O=C(COc1ccccc1Cl)Nc1cc(-c2ccccc2F)nn1-c1ccccc1 | inconclusive: 7.31 µM [rising, partial curve] | 
CCOc1ccc2cc(C#N)c(SCC(=O)N3CCOCC3)nc2c1 | inconclusive: 7.31 µM [cytotoxic, partial curve, poor fit] | 
COCCn1c(=S)[nH]c2cc(C(=O)N3CCN(c4cccc(Cl)c4)CC3)ccc2c1=O | inactive | 
COc1cc(Cl)c(C)cc1NC(=O)CN1CCN(C(=O)C2CC2)CC1 | active: 20.6 µM | 
COc1ccccc1N1CCN(C(=O)c2ccc3c(=O)n4c(nc3c2)CCCCC4)CC1 | inconclusive: 0.184 µM [cytotoxic, full curve] | 
COc1ccc(NC(=O)Nc2ccc(F)c(Cl)c2)cc1 | inconclusive: 4.11 µM [cytotoxic, full curve, poor fit] | 
O=C(CCSc1ccccc1)N1CCN(c2ccccc2)CC1 | inactive | 
Cc1nc(C(C)NC(=O)c2cc(COc3ccc(F)c(F)c3)on2)cs1 (stereo not drawn) | inactive | 
CCOC(=O)N1CCN(CC(=O)N2c3ccccc3Sc3ccccc32)CC1 | inactive | 
CCOC(=O)[C@]12CCCC=C1N(CCc1ccc(OC)c(OC)c1)C(=O)[C@H](CC(=O)NCCc1ccccc1OC)C2 | active: 13 µM | 
COc1cccc(NC(=S)Nc2ccc(F)cc2)c1 | inactive | 
Cc1ccc(OCCC(=O)NNC(=O)c2ccc(Br)cc2)cc1 | inconclusive: 29.1 µM [rising, single point] | 
N#Cc1cc(-c2ccccc2)cnc1Sc1ccc(Cl)cc1 | inconclusive: 23.1 µM [cytotoxic, single point] | 
CC(C)(C)NC(=O)C(CCc1ccccc1)n1c(=O)c(-c2cc3ccccc3[nH]2)nc2ccccc21 (stereo not drawn) | inconclusive: 14.6 µM [cytotoxic, partial curve, poor fit] | 
CCOC(=O)C1NC(=O)CC1c1ccccc1 (stereo not drawn) | inactive | 
CN1CCN(CC(=O)Nc2cccc(S(=O)(=O)N(C)c3ccccc3)c2)CC1 | inactive | 
Cc1ccc2c(c1)CCCN2C(=O)CCc1nc2ccccc2c(=O)[nH]1 | inconclusive: 0.92 µM [cytotoxic, full curve, poor fit] | 
O=C(N/N=C/c1ccccc1[N+](=O)[O-])c1cccs1 | inactive | 

Compound | Potency | activity change, negative = cytotoxicity
C=CCn1c(=S)[nH]c2cc(C(=O)NCCc3ccc(S(N)(=O)=O)cc3)ccc2c1=O | inconclusive: 23.1 µM [rising, partial curve] | 
C[C@@]12C(=O)OC(=O)[C@]1(C)C1CCC2O1 | active: 5.8 µM | 
CCc1nnc(NC(=O)C2CCCCN2S(=O)(=O)c2ccccc2)s1 (stereo not drawn) | inconclusive: 7.31 µM [cytotoxic, partial curve, poor fit] | 
COCc1nc2cccnc2n1C1CCN(S(=O)(=O)N(C)C)CC1 | inactive | 
Cc1cccc(-c2nc3c(c(SCC(=O)N4CCOCC4)n2)Cc2c(CO)cnc(C)c2O3)c1 | inactive | 
CCOC(=O)C1=C(O)/C(=C\c2cc(C)n(-c3ccc(F)cc3)c2C)N=C1C | inactive | 
C=C(C)Cn1c(CCNC(=O)CC)nc2ccccc21 | inconclusive: 2.91 µM [cytotoxic, partial curve, poor fit] | 
CCN(CC(=O)Nc1c(F)cccc1F)C(=O)c1ccc(C(=O)c2ccccc2)cc1 | inactive | 
O=C(COC(=O)CN1C(=O)NC2(CCCC2)C1=O)NCc1ccc(Cl)cc1Cl | inconclusive: 29.1 µM [rising, single point] | 
COc1cccc(NC(=O)N2CCCC2C(=O)NCc2ccc(Cl)cc2)c1 (stereo not drawn) | inactive | 
Clc1ccc2c(NCCNC3CCCCC3)ccnc2c1 | inconclusive: 18.4 µM [cytotoxic, single point] | 
O=C(CCn1ccc([N+](=O)[O-])n1)NC1CCCCCC1 | inconclusive: 20.6 µM [rising, partial curve, poor fit] | 
COc1ccc(C(=O)O)cc1S(=O)(=O)Nc1ccccc1-c1ccccc1 | inactive | 
COC(=O)c1ccc(N=c2sc(C(=O)OC)cc(=O)n2C)cc1 | inconclusive: 29.1 µM [rising, single point] | 
CC(=O)c1c(O)cc2c3c1OC(C)(C)C1CCC(C)(CC31)O2 (stereo not drawn) | inconclusive: 18.4 µM [cytotoxic, single point] | 
O=C(NNC(=S)Nc1ccc(Br)cc1)c1ccccc1Br | inconclusive: 29.1 µM [cytotoxic, single point] | 
O=C1C=C(Nc2ccccc2O)c2ccccc2C1=O | active: 20.6 µM | 
c1ccc(-c2nnc(SCc3nc4ccccc4[nH]3)o2)cc1 | active: 20.6 µM | 
Cc1noc(C)c1COc1cccc(C(=O)OC(C)C(=O)Nc2ccc3c(c2)OCO3)c1 (stereo not drawn) | inconclusive: 29.1 µM [cytotoxic, single point] | 
Cc1cccc(C(=O)Nc2sc3c(c2C(=O)N2CCCCC2)CCC(C)C3)c1 (stereo not drawn) | inconclusive: 1.46 µM [cytotoxic, partial curve, poor fit] | 
Cc1cc(Br)ccc1NC(=O)CN(C)Cc1cccs1 | inconclusive: 18.4 µM [rising, partial curve] | 
Cc1cc(C)n(C(=O)/C=C/c2cccs2)n1 | inconclusive: 18.4 µM [rising, single point] | 
O=C(COC(=O)CCc1ccc(S(=O)(=O)N2CCOCC2)cc1)Nc1cccc(Cl)c1 | inactive | 

— PubChem BioAssay AID1347076 (National Center for Advancing Translational Sciences (NCATS), 2019)
